This assay relates to Salmonella enterica serovar Typhimurium SL1344. The assay is described as follows: bacterial growth OD600 after 18 h with compound and polymyxin B; higher = more bacterial growth (less inhibition). The note with it: 50 µM, Mueller-Hinton broth.

Some of the results follow. These are raw signals, not scaled to a control.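 Primary screen: polymyxin B was added at a level permeabilizing Salmonella outer membranes while sparing inner membranes. DMSO wells, both with and without polymyxin B, established maximum growth. Plate-to-plate variation meant each plate was ranked on its own, and the lowest-OD600 compounds were selected as hits.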

As for `Cc1c(C(=O)N2CCN(C(=O)c3ccco3)CC2)sc2ncnc(NCCc3ccccc3)c12`, the “bacterial growth OD600” value (polymyxin B 0.75 µg/mL) came out at 0.773. With `COc1ccc(NC(=O)CCC2CCCN(Cc3cnc(SC)nc3)C2)cc1Cl` (configuration not stated), the “bacterial growth OD600” value (polymyxin B 1 µg/mL) came to 0.884.

Regarding `CCN1CCN(CC(=O)NCc2ccc3[nH]c(-c4ccc(F)cc4)c(C)c3c2)CC1`, the “bacterial growth OD600” value (polymyxin B 1 µg/mL) was determined as 1.08.

On to `COc1cccc(C(=O)N2CCCC(CCC(=O)NCc3ccccc3Cl)C2)c1OC` (configuration not stated), for which the “bacterial growth OD600” value (polymyxin B 1 µg/mL) came to 1.16.

As to `C=C(C)CNC(=O)c1cc(CN2CCOCC2)on1`, the “bacterial growth OD600” value (polymyxin B 1 µg/mL) was determined as 1.06. The same measure, in the same setting: as for `Cc1cccn2c(CNCC(C)(C)N3CCOCC3)c(C(=O)N3CCCCC3)nc12`, the figure is 0.805. As for `CC(C)CCN1CCOc2ccc(C(O)Cc3ccccc3)cc2C1` (configuration not stated), the “bacterial growth OD600” value (polymyxin B 0.75 µg/mL) amounted to 0.936. Regarding `COC(=O)CCCC(=O)N1CCc2[nH]nc(-c3ccc(C(F)(F)F)cc3)c2C1`, for the setting “polymyxin B 0.75 µg/mL”, the “bacterial growth OD600” value stood at 0.926.

Turning to `CCOC(=O)N1CCN(C(=O)c2ccc(N3CCC(NCCn4nc(C)cc4C)CC3)cc2)CC1`, the “bacterial growth OD600” value (polymyxin B 0.75 µg/mL) amounted to 0.818.

As for `COC(=O)c1ccc(CN2CCC(CO)(Cc3ccccc3Cl)CC2)cc1`, the “bacterial growth OD600” value (polymyxin B 0.75 µg/mL) worked out at 0.757.

As for `Cc1ccc(CN2C[C@H]3OC(=O)N(C4CCCC4)[C@H]3C2)cc1C`, under “polymyxin B 0.75 µg/mL”, the “bacterial growth OD600” value worked out at 0.544. Consider `Cc1cccc(-n2ncc3c2CCCC3NC(=O)CCC(F)(F)F)c1C` (configuration not stated), for which the “bacterial growth OD600” value (polymyxin B 1 µg/mL) came to 1.12. As to `COc1ccc(Cc2noc(-c3ccc(N(C)CCn4ccnc4)nc3)n2)cc1`, the “bacterial growth OD600” value (polymyxin B 1 µg/mL) worked out at 0.817. Turning to `CCC(=O)N(C)C(Cc1ccc(F)cc1F)C1CCN(C(=O)c2cccc(Cl)c2)CC1` (configuration not stated), the “bacterial growth OD600” value (polymyxin B 0.75 µg/mL) turned out to be 0.855. The same measure, in the same setting: as for `Cc1nc(C)c(CC(=O)NCc2cccnc2Oc2ccccc2C)s1`, the figure is 0.92; as for `c1cnc(N2CCC(C3CCN(c4nccc5occc45)C3)CC2)nc1` (configuration not stated), 0.554. For `C[C@@H]1CN(C(=O)c2coc(COc3ccccc3)n2)C[C@H](C)O1`, the “bacterial growth OD600” value (polymyxin B 1 µg/mL) is 0.983.

Turning to `COc1c(C)cc(C(=O)C2CCCN(Cc3nc4ccc(F)cc4[nH]3)C2)cc1C` (configuration not stated), under “polymyxin B 1 µg/mL”, the “bacterial growth OD600” value came to 0.541. On the same count and under the same terms, as for `COc1ccc(CN2CCN(Cc3cccc4c3OCO4)CC2CCO)c(F)c1` (configuration not stated), the figure is 1.13; as for `COc1ccc(CN2CCC(CO)(CCCc3ccccc3)CC2)c(F)c1`, 0.899; as for `COc1cccc(CN2CCCC(CNC(=O)c3ccc(F)cc3)C2)c1OC` (configuration not stated), 0.817.

Take `CN(Cc1cccc(C(F)(F)F)c1)Cc1nc(Cc2ccccc2Cl)no1`: the “bacterial growth OD600” value (polymyxin B 1 µg/mL) worked out at 0.75. Consider `C=CCCC(=O)N1CCC(Oc2ccc(C(=O)NC3CCCC3)cc2Cl)CC1`, for which the “bacterial growth OD600” value (polymyxin B 1 µg/mL) amounted to 1.13. For `COc1ccc(CCc2nnc(CCC(=O)NCc3ccc(F)cc3F)o2)cc1`, the “bacterial growth OD600” value (polymyxin B 1 µg/mL) is 0.854. `COc1ccc(CN2CCOc3ccc(C4=Cc5ccccc5CC4)cc3C2)cc1O`: the “bacterial growth OD600” value (polymyxin B 0.75 µg/mL) is 0.01. The same measure, in the same setting: the result for `CC#CCN1C(=O)NC(CCCc2ccccc2)(C2CCN(C(=O)/C=C/c3ccccn3)CC2)C1=O` (configuration not stated) reads 0.053. `CC(C)(C)c1ccc(-n2ncc3c2CCCC3NC(=O)CCN2CCCC2=O)cc1` (configuration not stated): where the note is “polymyxin B 1 µg/mL”, the “bacterial growth OD600” value came out at 0.937. Turning to `COCCN1CCN(C(=O)C2CCC(=O)N(CCc3ccc(Cl)cc3)C2)CC1` (configuration not stated), the “bacterial growth OD600” value (polymyxin B 1 µg/mL) turned out to be 0.918. Turning to `CCc1ocnc1C(=O)N1CCC(C2CCN(Cc3cccc(F)c3F)CC2)C1` (configuration not stated), the “bacterial growth OD600” value (polymyxin B 0.75 µg/mL) was 0.929. For `Cc1cc(CN(C)C(=O)c2coc(COc3ccc(F)cc3Cl)n2)on1`, the “bacterial growth OD600” value (polymyxin B 1 µg/mL) came to 0.62. Regarding `OCCOc1cccc(CN2CCOc3ccc(CN4CCC(Oc5cccnc5)CC4)cc3C2)c1`, the “bacterial growth OD600” value (polymyxin B 0.75 µg/mL) was 0.791.

For the compound `Cc1cc(C(=O)N2CCC(n3nccc3NC(=O)c3cccc(F)c3)CC2)c(C)o1`, the “bacterial growth OD600” value (polymyxin B 1 µg/mL) was 0.816.
